Values joined by “and” are separate entries in the source; they are usually repeats but may differ in a detail not shown here. Identical values can stand only once. Screen size: about 140,000 compounds; about 4,300 (3.1%) were called active. Inconclusive means that the source gave no clear call. Such entries were picked first, then a sample of the others.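 The calls were made as follows: active = readout at or below -70, meaning at least 70% loss of cells showing the perinucleolar compartment, a nuclear body marking cancer cells; inconclusive = readout between -30 and a set limit; inactive = the rest.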
Experiment: High Content Assay for Compounds that inhibit the Assembly of the Perinucleolar Compartment;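 also: plate controls were DMSO wells for no effect and camptothecin positive control wells for full effect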
Conditions: PC3M PTB-GFP, PNC prevalence imaging, 16 h; at 10 µM; stronger effect = lower value
Method in brief: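 Read-out is percentage of cells bearing a perinucleolar compartment, from automated 20x imaging of fixed, Hoechst-stained PC3M PTB-GFP cells. Cells were seeded 4 h, then exposed 16 h to compound (23 nl of library stock) in duplicate plates.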
In the case of `COc1ccc(Oc2c(Cl)cnn(-c3ccc(C)cc3)c2=O)cc1`, the activity change (PNC), negative = inhibition is reported as inactive: -8.51%. For `Cc1sc(NC(=O)c2ccco2)c(CN2CCCCC2)c1C`, the activity change (PNC), negative = inhibition was inconclusive: -42.7%. For `CC(C)c1c(O)c2c(n(-c3ccccc3)c1=O)CCCC2`, the activity change (PNC), negative = inhibition was inconclusive: -62%. With `COc1cccc(-c2nn(C)c3sc(C(=O)NCc4ccc(C)o4)cc23)c1` the activity change (PNC), negative = inhibition was inconclusive: -42.8%. In the case of `CN1CCN(Cc2ccc(OCc3ccccc3)cc2)CC1`, the activity change (PNC), negative = inhibition is reported as active: -86.2%. With `COc1cc(C2=NOC(C(=O)NCc3ccc(F)cc3)C2)cc(OC)c1OC` (stereo unspecified) the activity change (PNC), negative = inhibition was active: -121%. In the case of `Cc1ccc(NC(=O)CCSc2ccccn2)cc1`, the activity change (PNC), negative = inhibition is reported as inconclusive: -61%. For `COCCOC(=O)C1=C(C)N(Cc2ccccc2)C(=O)NC1c1ccc(OC)cc1` (stereo unspecified), the activity change (PNC), negative = inhibition was inconclusive: -31.4%. For `c1ccc(-c2noc(CN3CCN(C(c4ccccc4)c4ccccc4)CC3)n2)cc1`, the activity change (PNC), negative = inhibition was inconclusive: -38.2%. For `CCOc1ccccc1Nc1nc(-c2sc(NC(=O)c3ccco3)nc2C)cs1`, the activity change (PNC), negative = inhibition was inactive: -10.8%. In the case of `COc1ccc2c(c1)CCN=C2Cc1ccc(OC)c(OC)c1`, the activity change (PNC), negative = inhibition is reported as inconclusive: -52.9%. For `CCOC(=O)c1c(-c2ccccc2)csc1NC(=O)CCN1C(=O)c2ccccc2C1=O`, the activity change (PNC), negative = inhibition was inconclusive: -42.7%. With `O=C(O)c1cc(N/N=C/c2ccc3c(c2)OCCO3)ccc1Cl` the activity change (PNC), negative = inhibition was inactive: 54.7%. For `O=C(Cc1ccccc1)NCCSCc1ccc(Cl)cc1`, the activity change (PNC), negative = inhibition was inactive: -6.67%. With `CCn1cc(C(=O)NCc2ccco2)c(=O)c2cc(S(=O)(=O)N3CCCCCC3)ccc21` the activity change (PNC), negative = inhibition was inconclusive: -35.2%. For `COc1cc(CN2CCN(C(=O)CC(C)C)CC2)cc(OC)c1OC`, the activity change (PNC), negative = inhibition was inconclusive: -46.5%. In the case of `COc1cc(/C=C2/SC(=O)N(Cc3ccccc3Cl)C2=O)ccc1OCc1ccncc1`, the activity change (PNC), negative = inhibition is reported as inactive: 25.7%. In the case of `Cc1ccccc1NS(=O)(=O)c1ccc(OCC(=O)NCc2cccnc2)cc1`, the activity change (PNC), negative = inhibition is reported as inconclusive: -35.2%. For `COc1cc(C2CC(=O)N(CC(=O)NCc3ccco3)c3ccccc3S2)cc(OC)c1OC` (stereo unspecified), the activity change (PNC), negative = inhibition was inactive: 38.5%. In the case of `O=C(CCC1CCCCC1)NNC(=O)NC12CC3CC(CC(C3)C1)C2`, the activity change (PNC), negative = inhibition is reported as inconclusive: -32.4%. In the case of `CCCCNC(=S)Nc1ccc(Cl)cc1`, the activity change (PNC), negative = inhibition is reported as inconclusive: -33.2%. For `COc1cccc2c1C(=O)CC2NC(=O)C(F)(F)F` (stereo unspecified), the activity change (PNC), negative = inhibition was inconclusive: -73.2%. For `O=C(/C=C/c1ccccc1Cl)Nc1ccc(-c2nnc3n2CCCCC3)cc1`, the activity change (PNC), negative = inhibition was inactive: -5.77%. With `Cc1cc(C)nc(SCC(=O)Nc2ncccn2)n1` the activity change (PNC), negative = inhibition was inactive: 16.7%. For `COC(=O)c1ccc(NC(=S)NCCc2cccc(C)c2)cc1`, the activity change (PNC), negative = inhibition was inconclusive: -45.3%. In the case of `O=C(CNC1CCCCC1)N1CCc2ccccc2C1`, the activity change (PNC), negative = inhibition is reported as inactive: 1.47%. With `O=S1(=O)C=C(SCCN2CCCC2)c2ccccc21` the activity change (PNC), negative = inhibition was inconclusive: -47.8%. With `CC(C)C(=O)Nc1cccc(-c2cn3ccccc3n2)c1` the activity change (PNC), negative = inhibition was inconclusive: -39.5%. In the case of `O=C(CCSc1nnc(-c2ccncc2)o1)Nc1ccc(Cl)cc1`, the activity change (PNC), negative = inhibition is reported as inconclusive: -71.4%. In the case of `COc1ccc(CCCC(=O)N/N=C/c2cccc(OC)c2O)cc1C`, the activity change (PNC), negative = inhibition is reported as inconclusive: -40.1%. With `COC(=O)c1c(-c2cccc3ccccc23)csc1NC(=O)Cc1ccc(OC)c(OC)c1` the activity change (PNC), negative = inhibition was inactive: -12%. With `c1ccc(CN(Cc2cccs2)C(c2cccs2)c2nnnn2C2CCCC2)cc1` (stereo unspecified) the activity change (PNC), negative = inhibition was inconclusive: -30.2%. For `Cn1c(SCC(=O)OCc2ccccc2)nnc1-c1ccco1`, the activity change (PNC), negative = inhibition was inconclusive: -34.1%. For `O=C(CN1CCN(S(=O)(=O)c2ccc(Br)cc2)CC1)N/N=C/c1cccnc1`, the activity change (PNC), negative = inhibition was active: -90.1%. In the case of `CCC(C)Sc1nc2c([nH]c3ccccc32)c(=O)n1C` (stereo unspecified), the activity change (PNC), negative = inhibition is reported as inconclusive: -74%. In the case of `CC(C)NC(=O)CSCc1ccccc1Cl`, the activity change (PNC), negative = inhibition is reported as inactive: -23.3%. In the case of `O=c1c2[nH]c3ccccc3c2ncn1Cc1ccncc1`, the activity change (PNC), negative = inhibition is reported as inconclusive: -59.8%. With `O=C(NCCS(=O)CCNC(=O)C(F)(F)F)C(F)(F)F` the activity change (PNC), negative = inhibition was inconclusive: -47%. In the case of `O=C(/C=C/c1cccs1)Nc1ccc(Br)cn1`, the activity change (PNC), negative = inhibition is reported as inconclusive: -64%. In the case of `O=C(CN1CCN(Cc2ccc3c(c2)OCO3)CC1)Nc1ccc2c(c1)OCCO2`, the activity change (PNC), negative = inhibition is reported as inconclusive: -59.3%. For `Cc1ccc(-c2nnc(Cc3ccc(Cl)cc3)o2)cc1`, the activity change (PNC), negative = inhibition was inconclusive: -34.4%. With `Fc1ccc(SCCc2ccncc2)cc1` the activity change (PNC), negative = inhibition was inactive: 29% and inactive: 71.4%. For `O=C(Nc1ccc(O)cc1C(=O)O)c1ccc2c(c1)C(=O)N(Cc1ccco1)C2=O`, the activity change (PNC), negative = inhibition was inconclusive: -55.9%. With `CC(=O)C1C(c2ccccc2Cl)NC(=O)NC1(O)C(F)(F)F` (stereo unspecified) the activity change (PNC), negative = inhibition was inactive: -24.9%. With `O=C(CCC(=O)OCc1ccc(Br)cc1)Nc1ccccc1` the activity change (PNC), negative = inhibition was inconclusive: -34.4%. For `CCC(CC)n1[nH]c(=O)c2c(C)cc(C)nc21`, the activity change (PNC), negative = inhibition was active: -81.8%.
